Only a part is listed here, and it is no random draw. This is a noisy data set.
Compound: COC(=O)/C=C/c1ccccc1 [methyl cinnamate]
Assay: log2 ratio of iodoacetamide-alkyne labeling of the cysteine site, DMSO over compound (competition); higher = stronger covalent engagement of the cysteine by the compound, active = 1 or more
Conditions: 500 µM; treatment time 1 h; system: HEK293T cell lysate
Summary of the method: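 The log2 competition ratio per cysteine is defined as mean reporter intensity in control channels over mean reporter intensity in compound channels. Lysate from HEK293T cells (2 mg/mL) received electrophile (500 µM) or vehicle for 1 h at ambient temperature, followed by iodoacetamide alkyne for 1 h. Samples were clicked to sCIP-TMT reagents, pooled, trypsin-digested overnight at 37 °C, streptavidin-enriched, acid-eluted and run on Orbitrap Eclipse LC-MS/MS with FAIMS, with quantification in FragPipe. Three replicates with duplicate channels were used, and any cysteine quantified in only one replicate was excluded.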

| Target | log2 ratio of iodoacetamide-alkyne labeling |
| --- | --- |
| SORD C106 (UniProt Q00796) | inactive: 0.122 |
| UniProt P78527_C3347 | inactive: 0.11 |
| UniProt P62258_C98 | inactive: 0.152 |
| UniProt P78527_C1507 | inactive: 0.308 |
| UniProt P62873_C25 | inactive: 0.0241 |
| UniProt P62910_C91 | inactive: 0.265 |
| CLTC C666 (UniProt Q00610) | inactive: -0.108 |
| CNBP C6 (UniProt P62633) | inactive: 0.249 |
| UniProt P63241_C22 | inactive: 0.0899 |
| UniProt P78527_C3281 | inactive: 0.2 |
| EWSR1 C529 (UniProt Q01844) | inactive: 0.0711 |
| PLCB3 C892 (UniProt Q01970) | inactive: 0.779 |
| UniProt P63167_C24 | inactive: 0.0233 |
| UniProt P62917_C115 | inactive: -0.0953 |
| UniProt P62316_C63 | inactive: 0.218 |
| UniProt P62854_C77 | inactive: 0.22 |
| UniProt P62266_C90 | inactive: 0.0391 |
| UniProt P62829_C125 | inactive: 0.269 |
| UniProt P63167_C56 | inactive: 0.0658 |
| CLTC C918 (UniProt Q00610) | inactive: 0.174 |
| UniProt P62826_C112 | inactive: -0.00891 |
| AMPD2 C123 (UniProt Q01433) | inactive: 0.173 |
| UniProt Q00341_C683 | inactive: 0.241 |
| GRB2 C32 (UniProt P62993) | inactive: 0.218 |
| CDK5 C157 (UniProt Q00535) | inactive: -0.108 |

Single entries from above:
CLTC C666 (UniProt Q00610) | log2 ratio of iodoacetamide-alkyne labeling: inactive: -0.108
UniProt P62258_C98 | log2 ratio of iodoacetamide-alkyne labeling: inactive: 0.152

— the supplement of paper PMC11006884
